PubChem BioAssay AID686938, Drosophila RNAi Screening Center | 2013

Aim: 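Fly genes required for calcium entry once internal stores are emptied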 (primary screen)
Cells: Drosophila S2R+ cells
Reagent: long dsRNA against Drosophila genes, about 0.25 µg dsRNA per well, roughly 10,000 cells
Time to read-out: 5 days of knock-down before the calcium assay
Conditions: thapsigargin (SERCA pump blocker) to empty calcium stores; entry signal taken 4 min after adding it
Detection: 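Per-well fluo-4 fluorescence in two replicates, unnormalised, measured in resting cells and 4 min after store depletion by the SERCA blocker thapsigargin; ratio of the two present in few wells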
Scale: calcium entry signal: higher = stronger calcium signal after store depletion; resting calcium signal: higher = higher resting calcium signal
Active means: 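Hit if the duplicate-averaged plate z-score for entry over resting signal is under −3; wells with weak total dye signal (Fmax z < −2) or more than 5 off-targets removed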
Meaning of the calls: active = strongly reduced calcium entry; inactive = no strong reduction
In all, the deposit lists about 23,000 reagents; shown is a random part of those with a known target gene and a result. Of all reagents, 75 (0.33%) were called active. 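Raw plate signals without normalisation; calls rest on plate z-scores that were not deposited; ratio present for only 364 wells.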 Unmarked entries are inactive. Names joined by + are all predicted targets of the reagent. Not stated in the record: the dose of the treatment.

target gene	amplicon	calcium entry signal, replicate 1 (fluorescence units)	calcium entry signal, replicate 2 (fluorescence units)	resting calcium signal, replicate 1 (fluorescence units)	resting calcium signal, replicate 2 (fluorescence units)
CG6432 (GeneID 42901)	DRSC16039	4.40e7	2.96e7	2.05e7	1.38e7
AP-2sigma (GeneID 42525)	DRSC15957	3.54e7	3.82e7	4.72e7	1.65e7
Mccc1 (GeneID 43750)	DRSC15417	3.78e7	4.21e7	1.77e7	2.00e7
VepD (GeneID 117331)	DRSC22318	3.74e7	5.55e7	1.84e7	2.71e7
CR17567 (retired record) (GeneID 14462800)	DRSC02627	4.57e7	6.17e7	2.28e7	2.57e7
CR17567 (retired record) (GeneID 14462800)	DRSC22537	2.38e7	2.77e7	1.32e7	1.25e7
CG6733 (GeneID 42731)	DRSC16103	4.44e7	5.27e7	2.24e7	2.46e7
vir (GeneID 47869)	DRSC04377	3.05e7	2.59e7	1.49e7	1.24e7
GCS1 (GeneID 32073)	DRSC19744	2.70e7	3.00e7	1.27e7	1.39e7
CG12129 (GeneID 36044)	DRSC06105	4.23e7	3.89e7	1.83e7	1.85e7
CG10209 (GeneID 36652)	DRSC05980	4.56e7	4.76e7	1.94e7	2.15e7
CG32219 (GeneID 317922)	DRSC09641	3.65e7	3.36e7	1.69e7	1.55e7
Iml1 (GeneID 38176)	DRSC08249	3.29e7	3.36e7	1.65e7	1.92e7
CG34107 (GeneID 4379852)	DRSC14554	3.55e7	2.86e7	1.82e7	1.48e7
FER (GeneID 41118)	DRSC12735	3.42e7	4.63e7	1.68e7	2.21e7
FER (GeneID 41118)	DRSC16673	2.59e7	2.50e7	1.40e7	1.41e7
Alr (GeneID 32991)	DRSC19469	3.42e7	4.33e7	1.48e7	1.78e7
CG1421 (GeneID 35432)	DRSC03707	3.03e7	4.62e7	1.52e7	2.04e7
CG3008 (GeneID 33693)	DRSC00560	3.40e7	3.94e7	1.60e7	1.79e7
tst + CG10375	DRSC14237	4.27e7	3.81e7	2.08e7	1.75e7
Nf-YC (GeneID 31622)	DRSC18272	1.90e7	2.99e7	1.24e7	1.76e7
Nf-YC (GeneID 31622)	DRSC23106	4.11e7	3.78e7	1.94e7	1.66e7
CG5327 (GeneID 37138)	DRSC06930	5.75e7	5.35e7	2.54e7	2.40e7
CG14500 (GeneID 37087)	DRSC06471	3.72e7	4.53e7	1.83e7	2.05e7
hppy (GeneID 37203)	DRSC07014	4.90e7	3.71e7	2.10e7	1.92e7
hppy (GeneID 37203)	DRSC07015	4.48e7	3.40e7	1.84e7	1.68e7
hppy (GeneID 37203)	DRSC07016	4.70e7	3.52e7	1.91e7	1.75e7
CG33225 (GeneID 2768860)	DRSC03881	2.98e7	5.07e7	1.52e7	5.04e7
bonsai (GeneID 37587)	DRSC04453	4.08e7	3.84e7	2.04e7	1.66e7
Ssdp (GeneID 42177)	DRSC16211	4.22e7	4.55e7	5.27e7	1.88e7
CG42382 (GeneID 35938)	DRSC07671	3.64e7	4.86e7	1.74e7	2.17e7
Spn43Ad (GeneID 35639)	DRSC06770	3.08e7	4.33e7	1.50e7	1.82e7
CR33221 (GeneID 12798104)	DRSC21201	4.08e7	3.67e7	2.20e7	1.84e7
Sas10 (GeneID 31447)	DRSC18355	1.54e7	2.08e7	9.47e6	1.16e7
CG15198 (GeneID 32065)	DRSC19645	4.22e7	4.45e7	2.02e7	2.26e7
bbg (GeneID 39583)	DRSC11077	4.51e7	3.79e7	2.24e7	1.50e7
bbg (GeneID 39583)	DRSC11079	3.75e7 (active)	3.76e7	1.75e7	1.74e7
CG15022 (GeneID 38549)	DRSC08476	2.52e7	7.01e7	1.22e7	2.60e7
CG17598 (GeneID 33140)	DRSC20636	3.42e7	4.22e7	1.85e7	1.79e7
CG33223 (GeneID 2768867)	DRSC17572	3.75e7	3.10e7	2.00e7	1.64e7
eyg (GeneID 39419)	DRSC11344	2.14e7	3.00e7	1.35e7	1.60e7
eyg (GeneID 39419)	DRSC23136	4.97e7	3.02e7	2.52e7	1.37e7
CG14505 (GeneID 37098)	DRSC06476	4.75e7	5.88e7	2.12e7	2.79e7
CG14650 (GeneID 40566)	DRSC12236	4.32e7	3.87e7	1.77e7	1.74e7
Mst89B (GeneID 41972)	DRSC16748	3.30e7	5.07e7	1.68e7	9.19e7
CG4080 (GeneID 39079)	DRSC10398	5.10e7	4.25e7	3.33e7	1.79e7
Hr78 (GeneID 40378)	DRSC11866	2.69e7	3.54e7	1.27e7	2.44e7
CG14937 (GeneID 34591)	DRSC02419	3.18e7	3.83e7	1.66e7	1.80e7
crc (GeneID 47767)	DRSC03513	3.60e7	4.66e7	2.04e7	2.48e7
Dbp80 (GeneID 3354919)	DRSC22034	3.13e7	5.13e7	1.50e7	2.62e7
CG12278 (GeneID 42486)	DRSC14494	1.75e7	2.86e7	1.13e7	7.32e7
CG13561 (GeneID 37765)	DRSC04199	3.79e7	3.78e7	1.95e7	1.80e7
CG18549 (GeneID 41538)	DRSC15347	4.29e7	3.93e7	2.01e7	2.00e7
Actn3 (GeneID 44964)	DRSC14106	2.71e7	4.92e7	1.45e7	6.12e7
CG32091 (GeneID 39307)	DRSC10141	2.19e7	2.60e7	1.14e7	1.19e7
CG32091 (GeneID 39307)	DRSC10820	2.23e7	2.84e7	1.17e7	1.35e7
CG14641 (GeneID 40529)	DRSC12227	3.38e7	4.15e7	1.44e7	2.57e7
CG11251 (GeneID 39490)	DRSC09825	2.50e7	3.74e7	1.26e7	1.42e7
yin (GeneID 31340)	DRSC18854	3.74e7	4.46e7	1.70e7	2.07e7
yin (GeneID 31340)	DRSC21889	3.22e7	5.23e7	1.52e7	2.15e7
Vps2 (GeneID 43164)	DRSC14886	3.60e7	3.91e7	1.96e7	2.10e7
CG12995 (GeneID 32707)	DRSC19515	4.25e7	3.82e7	2.17e7	1.66e7
mAcon2 (GeneID 41326)	DRSC15629	2.42e7	2.43e7	1.31e7	1.29e7
fs(1)K10 (GeneID 47781)	DRSC18775	4.79e7	4.78e7	2.17e7	2.33e7
Klp61F (GeneID 38135)	DRSC08671	1.87e7	1.64e7	1.34e7	1.24e7
CG12914 (GeneID 36078)	DRSC06229	3.19e7	3.68e7	1.48e7	1.72e7
CG32603 (GeneID 318109)	DRSC19409	3.27e7	2.90e7	1.58e7	1.29e7
CG32603 (GeneID 318109)	DRSC21586	3.35e7	2.68e7	1.69e7	1.23e7
Fhos (GeneID 39004)	DRSC08943	3.39e7	4.17e7	1.78e7	1.72e7
Fhos (GeneID 39004)	DRSC10545	4.54e7	3.18e7	2.81e7	1.40e7
Fhos (GeneID 39004)	DRSC10546	4.23e7	2.79e7	2.66e7	1.37e7
Fhos (GeneID 39004)	DRSC10547	3.33e7	4.21e7	1.60e7	1.89e7
CG1504 (GeneID 33028)	DRSC20513	4.84e7	3.81e7	2.36e7	1.75e7
CG43234 (retired record) (GeneID 12798025)	DRSC01786	3.29e7	6.69e7	1.50e7	2.51e7
Ir10a (GeneID 32067)	DRSC18891	2.75e7	2.66e7	1.33e7	1.33e7
Ir10a (GeneID 32067)	DRSC19478	4.42e7	3.75e7	2.09e7	1.93e7
Ir10a (GeneID 32067)	DRSC19479	4.10e7	4.85e7	1.88e7	2.20e7

Already shown: 11 of the entries above.
target gene	amplicon	calcium entry signal, replicate 1 (fluorescence units)	calcium entry signal, replicate 2 (fluorescence units)	resting calcium signal, replicate 1 (fluorescence units)	resting calcium signal, replicate 2 (fluorescence units)
bonsai (GeneID 37587)	DRSC04453	4.08e7	3.84e7	2.04e7	1.66e7
Ssdp (GeneID 42177)	DRSC16211	4.22e7	4.55e7	5.27e7	1.88e7
CG42382 (GeneID 35938)	DRSC07671	3.64e7	4.86e7	1.74e7	2.17e7
Spn43Ad (GeneID 35639)	DRSC06770	3.08e7	4.33e7	1.50e7	1.82e7
CR33221 (GeneID 12798104)	DRSC21201	4.08e7	3.67e7	2.20e7	1.84e7
Sas10 (GeneID 31447)	DRSC18355	1.54e7	2.08e7	9.47e6	1.16e7
CG15198 (GeneID 32065)	DRSC19645	4.22e7	4.45e7	2.02e7	2.26e7
bbg (GeneID 39583)	DRSC11077	4.51e7	3.79e7	2.24e7	1.50e7
bbg (GeneID 39583)	DRSC11079	3.75e7 (active)	3.76e7	1.75e7	1.74e7
CG15022 (GeneID 38549)	DRSC08476	2.52e7	7.01e7	1.22e7	2.60e7
CG17598 (GeneID 33140)	DRSC20636	3.42e7	4.22e7	1.85e7	1.79e7
